Test results reported in article doi:10.1101/2022.12.12.520075.
Results are given in words; binding and its absence hold for the method and conditions named. Binding seen in cells or lysates may run through a third protein. Some binding calls cover weakened binding; strength is not graded here.

Amino acid sequences for entries named in this document (tags omitted). A change or cut given only in a name is not applied to a line headed by its entry.
UniProt Q02563, whole entry: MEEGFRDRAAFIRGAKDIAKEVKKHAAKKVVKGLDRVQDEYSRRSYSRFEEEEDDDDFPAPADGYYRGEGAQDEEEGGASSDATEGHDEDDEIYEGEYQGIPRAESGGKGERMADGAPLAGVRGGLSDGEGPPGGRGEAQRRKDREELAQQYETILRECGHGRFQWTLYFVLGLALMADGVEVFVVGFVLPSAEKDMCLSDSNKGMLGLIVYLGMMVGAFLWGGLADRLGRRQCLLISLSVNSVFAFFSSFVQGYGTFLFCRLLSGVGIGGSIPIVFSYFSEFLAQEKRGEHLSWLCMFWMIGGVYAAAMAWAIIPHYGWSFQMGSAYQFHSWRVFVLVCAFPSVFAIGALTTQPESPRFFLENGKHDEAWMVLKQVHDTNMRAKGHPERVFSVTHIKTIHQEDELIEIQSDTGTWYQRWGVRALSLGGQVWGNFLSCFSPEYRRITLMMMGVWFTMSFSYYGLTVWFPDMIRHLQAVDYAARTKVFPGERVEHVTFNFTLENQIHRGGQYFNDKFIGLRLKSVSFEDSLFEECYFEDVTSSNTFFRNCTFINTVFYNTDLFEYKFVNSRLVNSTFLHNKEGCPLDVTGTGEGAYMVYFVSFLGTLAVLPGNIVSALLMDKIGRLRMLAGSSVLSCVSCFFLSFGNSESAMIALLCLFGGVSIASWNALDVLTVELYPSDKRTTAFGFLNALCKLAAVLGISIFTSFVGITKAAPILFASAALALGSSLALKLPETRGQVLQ
UniProt P21707, whole entry: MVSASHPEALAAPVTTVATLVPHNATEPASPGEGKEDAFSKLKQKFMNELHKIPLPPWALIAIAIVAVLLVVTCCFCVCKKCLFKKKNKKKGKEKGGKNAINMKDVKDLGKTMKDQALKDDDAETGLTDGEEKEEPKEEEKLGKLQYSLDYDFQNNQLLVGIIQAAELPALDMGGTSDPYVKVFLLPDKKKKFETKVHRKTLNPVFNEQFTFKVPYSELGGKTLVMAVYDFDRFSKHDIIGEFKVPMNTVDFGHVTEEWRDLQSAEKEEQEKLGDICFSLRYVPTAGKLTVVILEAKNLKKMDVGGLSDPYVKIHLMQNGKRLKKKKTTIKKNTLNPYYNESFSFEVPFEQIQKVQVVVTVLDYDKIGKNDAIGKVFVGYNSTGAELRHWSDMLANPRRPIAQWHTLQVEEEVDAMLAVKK

Experiments:
[1] = biological target: SV2A^WT-mCer (synaptic vesicle protein 2A, mCerulean-tagged, wild type) (UniProt Q02563); assay: co-IP
SV2A^Y46A-mCer = SV2A^Y46A-mCer (UniProt Q02563); assay: co-IP

binding [1]: binds
binding (SV2A^Y46A-mCer): binds
Substance: Syt1-HA (synaptotagmin-1, HA-tagged) (from UniProt P21707 1-421)
